The results in this text go back to paper PMC12717421.

Results are given in words; binding and its absence hold for the method and conditions named. In cells and extracts the contact can be indirect. Some entries that bind do so weakly or less than the wild type. For some of these results: Where a sequence is shown, tags or fusion partners need not be part of it.

The target in experiment [1] is T1, HA-Maf1/WT (UniProt Q9H063).
T1 sequence: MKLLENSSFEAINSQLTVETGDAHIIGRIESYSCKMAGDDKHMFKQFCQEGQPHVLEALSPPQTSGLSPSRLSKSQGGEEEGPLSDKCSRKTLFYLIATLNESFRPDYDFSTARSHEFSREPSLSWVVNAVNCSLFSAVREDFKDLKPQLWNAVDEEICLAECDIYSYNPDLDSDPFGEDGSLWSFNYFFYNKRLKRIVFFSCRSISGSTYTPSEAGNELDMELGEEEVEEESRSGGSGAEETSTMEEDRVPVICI
In words: proximity ligation; in situ PLA in formaldehyde-fixed Huh7 and Hep3B cells; anti-HA and anti-GFP antibodies for the transfected proteins, anti-Aurora-A and anti-Maf1 antibodies for the endogenous proteins in Hep3B.

Experiment [2] concerns the target T1, HA-Maf1/WT. As to the kind of experiment: co-IP; lysates of transiently transfected Huh7 or Hep3B cells in IP lysis buffer (50 mM Tris-HCl pH 8.0, 120 mM NaCl, 5 mM EGTA, 0.05% Triton X-100, 0.055% NP-40); IP with anti-HA or anti-GFP antibodies, IgG as negative control; western blot.
The target of experiment [3] is T2, endogenous Maf1 (human (endogenous in Hep3B)) (UniProt Q9H063).
T2 sequence: T1 sequence
As to the kind of experiment: proximity ligation; in situ PLA in formaldehyde-fixed Huh7 and Hep3B cells; anti-HA and anti-GFP antibodies for the transfected proteins, anti-Aurora-A and anti-Maf1 antibodies for the endogenous proteins in Hep3B.

B1: GFP-Aurora-A (enzyme, UniProt O14965 1-403)
chain: MDRSKENCISGPVKATAPVGGPKRVLVTQQFPCQNPLPVNSGQAQRVLCPSNSSQRIPLQAQKLVSSHKPVQNQKQKQLQATSVPHPVSRPLNNTQKSKQPLPSAPENNPEEELASKQKNEESKKRQWALEDFEIGRPLGKGKFGNVYLAREKQSKFILALKVLFKAQLEKAGVEHQLRREVEIQSHLRHPNILRLYGYFHDATRVYLILEYAPLGTVYRELQKLSKFDEQRTATYITELANALSYCHSKRVIHRDIKPENLLLGSAGELKIADFGWSVHAPSSRRTTLCGTLDYLPPEMIEGRMHDEKVDLWSLGVLCYEFLVGKPPFEANTYQETYKRISRVEFTFPDFVTEGARDLISRLLKHNPSQRPMLREVLEHPWITANSSKPSNCQNKESASKQS
Regarding B1, the binding entry in the experiment with HA-Maf1/WT [1] and in the experiment with HA-Maf1/WT [2] was “binds” each time.

B2: endogenous Aurora-A (enzyme, UniProt O14965 1-403)
chain: B1 chain
With B2, the binding result (in experiment [3]; with HA-Maf1/WT [2]) was “binds” each time.
